Some of the results follow.
Compound: Cc1cc(ccc1-c1ccccc1)C(=O)N1CCCN(CC1)C(=O)CCl [compound 10]
Test: probe-labelled cysteine peptide fold change vs DMSO (competition) (log2 fold change); higher = less target engagement (more negative = stronger competition)
Conditions: THP-1, incubation time: 4 h
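Further: competitive profiling in live THP-1 cells: cysteine peptides tagged with an iodoacetamide desthiobiotin (IA-DTB) probe, intensity after compound treatment relative to DMSO-treated cells.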

Row | Target | probe-labelled cysteine peptide fold change (10 µM) | probe-labelled cysteine peptide fold change (50 µM)
1 | IRAK3_Q9Y616_532_RNEEACNMPSSSCEESWFPK (UniProt Q9Y616) | 0.102 | -0.354
2 | INTS11_Q5TA45_19_SCILVSIAGK (UniProt Q5TA45) | 0.0767 | -0.0856
3 | ITGAV_P06756_97_CQPIEFDATGNR (UniProt P06756) | -0.0783 | 0.262
4 | INTS13_Q9NVM9_556_VLECLMACR (UniProt Q9NVM9) | -0.0534 | -0.149
5 | ISG15_P05161_78_CDEPLSILVR (UniProt P05161) | 0.253 | 0.838
6 | INSR_P06213_825_IELQACNQDTPEER (UniProt P06213) | -0.175 | -0.0277
7 | ITPK1_Q13572_391+403_LGCNAGVSPSFQQHCVASLATK (UniProt Q13572) | -0.19 | -0.599
8 | IPO5_O00410_560_TIECISLIGLAVGK (UniProt O00410) | 0.166 | 0.131
9 | IRF3_Q14653_267_HVLSCLGGGLALWR (UniProt Q14653) | -0.218 | 0.209
10 | IPO4_Q8TEX9_574_AVGEPMRPLAEECCQLGLGLCDQVDDPDLRR (UniProt Q8TEX9) | -0.0205 | -0.66
11 | INTS11_Q5TA45_354_NMVIMPGYCVQGTVGHK (UniProt Q5TA45) | 0.0373 | 0.00217
12 | IPO4_Q8TEX9_726_KAAHEALGQFCCALHK (UniProt Q8TEX9) | -0.0458 | -0.126
13 | ITGB1_P05556_555_FCECDNFNCDR (UniProt P05556) | 0.0306 | -0.204
14 | IPO5_O00410_1017_EEAVQTFNYLCDLIESNHPIVLGPNNTNLPK (UniProt O00410) | 0.103 | 0.275
15 | IQGAP1_P46940_660_SPDVGLYGVIPECGETYHSDLAEAKK (UniProt P46940) | -0.213 | -0.0822
16 | INTS2_Q9H0H0_722_LLATNYPHLCIVDDWICEEEITGTDALLRR (UniProt Q9H0H0) | -0.0727 | -0.174
17 | ITFG2_Q969R8_326_LDVTGNGHEEVVACAWDGQTYIIDHNR (UniProt Q969R8) | 0.15 | 0.427
18 | IQSEC2_Q5JU85_821_DVLDCVVDEMDFSSMDLDDALRK (UniProt Q5JU85) | 0.153 | 0.0906
19 | ITGB2_P05107_628_YISCAECLK (UniProt P05107) | 0.198 | 0.0242

Row | Target | probe-labelled cysteine peptide fold change (10 µM) | probe-labelled cysteine peptide fold change (50 µM)
20 | IQGAP1_P46940_660_SPDVGLYGVIPECGETYHSDLAEAK (UniProt P46940) | -0.194 | 0.116
21 | IPO4_Q8TEX9_95_ETEHCVSLSLAQLSATIFRK (UniProt Q8TEX9) | -0.201 | -0.294
22 | IQGAP1_P46940_45_RQNVAYEYLCHLEEAK (UniProt P46940) | 0.214 | 0.272
23 | INPPL1_O15357_1121_SCSVLQMAK (UniProt O15357) | -0.309 | -0.579
24 | ITGB2_P05107_549_YNGQVCGGPGR (UniProt P05107) | -0.00697 | -0.236
25 | IREB2_P48200_720_CPSFFDK (UniProt P48200) | -0.287 | -0.168
26 | INTS13_Q9NVM9_494_ESLTEEDVLNCQK (UniProt Q9NVM9) | 0.156 | -0.139
27 | IPO5_O00410_1057_IFSIIAEGEMHEAIKHEDPCAKR (UniProt O00410) | -0.391 | -1.01
28 | IPO5_O00410_1057_IFSIIAEGEMHEAIKHEDPCAK (UniProt O00410) | -0.29 | -0.533
29 | IPO7_O95373_757_GIDQCIPLFVEAALER (UniProt O95373) | -0.699 | 0.299
30 | IPO4_Q8TEX9_962_VRDNICGALAR (UniProt Q8TEX9) | 0.198 | -0.409
31 | INSR_P06213_899_YGDEELHLCVSR (UniProt P06213) | -0.0624 | 0.262
32 | INTS5_Q6P9B9_183_VPHATGALNELLQLWMGCR (UniProt Q6P9B9) | -0.488 | 0.369
33 | IQGAP3_Q86VI3_74_LGHCFAPSVVPLKK (UniProt Q86VI3) | 0.101 | -0.283
34 | IRF2BP2_Q7Z5L9_549_QQGASGEVYCPSGEK (UniProt Q7Z5L9) | 0.0971 | -0.352
35 | IPO5_O00410_229_HFADLLPGFLQAVNDSCYQNDDSVLK (UniProt O00410) | 0.0847 | 0.0234
36 | ITGA4_P13612_198_KFGENFASCQAGISSFYTK (UniProt P13612) | -0.185 | -0.242
37 | IRF2BP2_Q7Z5L9_19_RQSCYLCDLPR (UniProt Q7Z5L9) | -0.261 | -0.459
38 | ITGB2_P05107_198_ECQPPFAFR (UniProt P05107) | -0.0264 | 0.0254

Rewritten as labelled records: part of the list above.
IQGAP1_P46940_45_RQNVAYEYLCHLEEAK (UniProt P46940)
  probe-labelled cysteine peptide fold change (10 µM) = 0.214
  probe-labelled cysteine peptide fold change (50 µM) = 0.272
INPPL1_O15357_1121_SCSVLQMAK (UniProt O15357)
  probe-labelled cysteine peptide fold change (10 µM) = -0.309
  probe-labelled cysteine peptide fold change (50 µM) = -0.579

Reference: the supplement of paper PMC12067093, “Discovery and optimisation of a covalent ligand for TRIM25 and its application to targeted protein ubiquitination” (Chemical Science, 2025)
